No constants are given. Whether binding was seen depends on the method and setting. In cells and extracts the contact can be indirect. Some results given as binding are weak or reduced against the parent protein; the word gives no strength.
Target: wild-type eGFP-YY2 (human) (UniProt O15391)
Assay: co-IP; HeLa cells stably expressing eGFP-YY2, transfected with Smurf1-FLAG for 24 hr; lysed in 25 mM Tris-HCl pH 7.4, 150 mM NaCl, 1% NP-40, 1 mM EDTA, 5% glycerol; anti-GFP antibody-magnetic beads, 4 °C, 4 hr; four washes; immunoblot; IgG control IP

The chains behind the UniProt entries cited, without tags or fusion partners.
UniProt O15391: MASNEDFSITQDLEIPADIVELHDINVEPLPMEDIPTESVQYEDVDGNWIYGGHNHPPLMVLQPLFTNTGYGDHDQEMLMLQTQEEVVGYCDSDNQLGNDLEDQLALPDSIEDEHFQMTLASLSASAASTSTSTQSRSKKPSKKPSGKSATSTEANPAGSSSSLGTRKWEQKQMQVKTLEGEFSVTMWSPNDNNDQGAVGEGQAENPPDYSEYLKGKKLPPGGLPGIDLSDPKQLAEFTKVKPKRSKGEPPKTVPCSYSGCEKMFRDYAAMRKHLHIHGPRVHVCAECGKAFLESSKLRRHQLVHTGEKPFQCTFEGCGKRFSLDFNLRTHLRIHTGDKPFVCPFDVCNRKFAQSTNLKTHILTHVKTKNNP
UniProt Q9HCE7: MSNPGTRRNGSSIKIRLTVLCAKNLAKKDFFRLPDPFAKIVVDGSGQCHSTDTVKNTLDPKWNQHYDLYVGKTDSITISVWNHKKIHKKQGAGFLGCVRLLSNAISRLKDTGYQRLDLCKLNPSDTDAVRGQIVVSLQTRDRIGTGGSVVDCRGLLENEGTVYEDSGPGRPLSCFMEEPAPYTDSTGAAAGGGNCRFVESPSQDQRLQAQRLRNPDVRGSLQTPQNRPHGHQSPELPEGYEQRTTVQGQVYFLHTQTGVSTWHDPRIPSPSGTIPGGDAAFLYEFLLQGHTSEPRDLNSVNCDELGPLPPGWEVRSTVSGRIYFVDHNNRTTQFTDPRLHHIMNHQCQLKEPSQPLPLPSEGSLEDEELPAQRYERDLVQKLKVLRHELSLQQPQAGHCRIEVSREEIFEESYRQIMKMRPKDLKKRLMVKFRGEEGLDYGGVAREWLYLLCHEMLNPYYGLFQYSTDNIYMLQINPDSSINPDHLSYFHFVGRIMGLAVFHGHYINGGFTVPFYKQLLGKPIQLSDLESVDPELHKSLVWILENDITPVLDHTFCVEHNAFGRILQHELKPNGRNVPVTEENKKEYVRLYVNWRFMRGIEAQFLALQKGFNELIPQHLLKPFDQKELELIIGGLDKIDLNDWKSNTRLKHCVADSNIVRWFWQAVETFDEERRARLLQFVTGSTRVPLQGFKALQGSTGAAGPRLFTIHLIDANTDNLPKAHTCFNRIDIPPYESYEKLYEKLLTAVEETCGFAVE

binding: binds
Substance: Smurf1-FLAG (from UniProt Q9HCE7 1-757) (enzyme)

Reference: article PMC9984496
